Values as published with doi:10.1371/journal.pone.0140310, rounded.

Compounds and concentrations:
IMD-0354, 0.08 µM: O=C(Nc1cc(C(F)(F)F)cc(C(F)(F)F)c1)c1cc(Cl)ccc1O
SU6656, 2 µM: CN(C)S(=O)(=O)c1ccc2c(c1)/C(=C/c1cc3c([nH]1)CCCC3)C(=O)N2
temozolomide, 10 µM: Cn1nnc2c(C(N)=O)ncn2c1=O
PD173074, 0.5 µM: CCN(CC)CCCCNc1ncc2cc(-c3cc(OC)cc(OC)c3)c(NC(=O)NC(C)(C)C)nc2n1
NVP-TAE684, 0.4 µM: COc1cc(N2CCC(N3CCN(C)CC3)CC2)ccc1Nc1ncc(Cl)c(Nc2ccccc2S(=O)(=O)C(C)C)n1
vincristine, 0.0005 µM: CC[C@]1(O)C[C@H]2CN(CCc3c([nH]c4ccccc34)[C@@](C(=O)OC)(c3cc4c(cc3OC)N(C=O)[C@H]3[C@@](O)(C(=O)OC)[C@H](OC(C)=O)[C@]5(CC)C=CCN6CC[C@]43[C@@H]65)C2)C1
AS-252424, 5 µM: O=C1NC(=O)/C(=C/c2ccc(-c3ccc(F)cc3O)o2)S1
GW0742, 10 µM: Cc1cc(SCc2sc(-c3ccc(C(F)(F)F)c(F)c3)nc2C)ccc1OCC(=O)O
FH535, 5 µM: Cc1cc([N+](=O)[O-])ccc1NS(=O)(=O)c1cc(Cl)ccc1Cl
MK-2206, 2 µM: NC1(c2ccc(-c3nc4ccn5c(=O)[nH]nc5c4cc3-c3ccccc3)cc2)CCC1
GW2580, 5 µM: COc1ccc(COc2ccc(Cc3cnc(N)nc3N)cc2OC)cc1
PF-04217903, 5 µM: OCCn1cc(-c2cnc3nnn(Cc4ccc5ncccc5c4)c3n2)cn1
tipifarnib, 0.05 µM: Cn1cncc1[C@@](N)(c1ccc(Cl)cc1)c1ccc2c(c1)c(-c1cccc(Cl)c1)cc(=O)n2C
KU-55933, 5 µM: O=c1cc(-c2cccc3c2Sc2ccccc2S3)oc(N2CCOCC2)c1

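Human melanoma cells were exposed to a pair of drugs for 72 h in 1,536-well plates and read by automated microscopy after fixing and staining. The read-out is the fraction of cleaved-PARP-positive nuclei, in % of that fraction in the DMSO control; 200 means twice the control level of this apoptosis marker. Every drug was used at one fixed concentration, the higher of two screened. No replicate spread is given; individual values may be noisy. Basal and induced levels differ widely between cell lines.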
An unselected part of the screen is shown.
An entry leaves out what has no value listed here.
A dash means that no value is listed here.

| # | Drugs | WM1745 | COLO 792 | SK-MEL-2 | C32 | SK-MEL-5 | A375 | WM451Lu | WM3619 | IPC-298 | COLO 800 | LOX IMVI | IST-MEL1 | WM3526 | A2058 |
|---|---|---|---|---|---|---|---|---|---|---|---|---|---|---|---|
| 1 | GW0742 + KU-55933 | 126 | 24.2 | 81.6 | 101 | 136 | 43.1 | 141 | 115 | 108 | 116 | 76.5 | 136 | 129 | 133 |
| 2 | SU6656 + FH535 | 139 | 109 | 101 | 98.9 | 94.7 | 78.3 | 116 | 143 | 174 | 106 | 114 | 71.2 | 119 | 141 |
| 3 | vincristine + PD173074 | - | 146 | 160 | 74.2 | 180 | 66.9 | 1140 | 112 | 182 | 182 | 86.7 | 116 | 139 | 84.3 |
| 4 | PD173074 + NVP-TAE684 | 168 | 279 | - | 103 | 133 | 83.8 | 164 | 111 | 97.2 | 264 | 110 | 119 | 136 | 211 |
| 5 | IMD-0354 + SU6656 | 107 | 24.7 | 120 | 89.1 | 67.9 | - | 85.7 | 80.7 | 134 | 361 | 293 | 221 | 74.4 | 120 |
| 6 | temozolomide + GW2580 | 106 | 97.8 | 15.0 | 87.8 | 100 | 88.0 | 88.9 | 127 | 116 | 63.6 | 54.5 | 33.2 | 94.8 | 520 |
| 7 | PF-04217903 + GW2580 | 90.3 | 62.5 | 180 | 81.2 | 198 | 60.7 | 53.6 | 84.6 | 86.1 | 125 | 51.6 | 30.5 | 61.1 | 86.0 |
| 8 | MK-2206 + PD173074 | - | 124 | 74.5 | 175 | 110 | 33.0 | 282 | 81.7 | 34.5 | 213 | 325 | 167 | 575 | 60.0 |
| 9 | SU6656 + vincristine | 164 | 152 | 639 | 305 | 1340 | - | 460 | 230 | 118 | 400 | 97.6 | 664 | 2070 | 3350 |
| 10 | vincristine + MK-2206 | 127 | 193 | 47.3 | 462 | 501 | 319 | 218 | 159 | 61.2 | 190 | 203 | 101 | 1190 | 1500 |
| 11 | FH535 + PF-04217903 | 125 | 83.5 | 39.7 | 190 | 180 | 208 | 33.3 | 140 | 150 | 212 | 86.9 | 474 | 54.7 | 88.3 |
| 12 | PF-04217903 + vincristine | 81.3 | 119 | 154 | 124 | 79.9 | - | 509 | 96.4 | 115 | 105 | 89.1 | 69.0 | 468 | 77.2 |
| 13 | GW0742 + AS-252424 | 113 | 144 | 116 | 204 | 115 | 43.5 | 73.3 | 130 | 191 | 57.7 | 109 | 214 | 102 | 124 |
| 14 | IMD-0354 + vincristine | 136 | 40.1 | 88.0 | 225 | 230 | 34.2 | 393 | 135 | 84.3 | 132 | 26.8 | 259 | 666 | 289 |
| 15 | FH535 + vincristine | - | 116 | 513 | 176 | 468 | 286 | 2270 | 176 | 97.6 | 117 | 94.0 | 127 | 758 | 3570 |
| 16 | FH535 + KU-55933 | 143 | 101 | 131 | 101 | 81.4 | 130 | 93.5 | 165 | 85.6 | 147 | 55.2 | 147 | 135 | 125 |
| 17 | temozolomide + MK-2206 | 109 | 71.3 | 29.5 | 119 | 195 | 31.1 | 121 | 258 | 107 | 156 | 71.0 | 362 | 249 | 422 |
| 18 | SU6656 + MK-2206 | 231 | 210 | 65.3 | 296 | 113 | - | 202 | 131 | 168 | 205 | 136 | 148 | 160 | 80.5 |
| 19 | PD173074 + SU6656 | 155 | 154 | 78.7 | 112 | 187 | 63.4 | 145 | 132 | 182 | 184 | 125 | 24.2 | 113 | 134 |
| 20 | IMD-0354 + GW0742 | - | 66.0 | 69.3 | 69.9 | 54.5 | 147 | 107 | 93.3 | 35.7 | 102 | 103 | 130 | 51.4 | 81.5 |
| 21 | NVP-TAE684 + GW2580 | 192 | 96.8 | 20.5 | 307 | 161 | 135 | 111 | 143 | 105 | 156 | 101 | 196 | 150 | 169 |
| 22 | MK-2206 + KU-55933 | - | 244 | 83.9 | 92.3 | 157 | 64.3 | 110 | 76.5 | 88.6 | 146 | 152 | 51.5 | 58.0 | 120 |
| 23 | vincristine + temozolomide | 95.5 | 121 | 91.8 | 150 | 34.5 | 54.8 | 150 | 139 | 42.0 | 83.9 | 137 | 109 | 648 | 373 |
| 24 | IMD-0354 + AS-252424 | - | 93.4 | 37.6 | 72.0 | 110 | 73.3 | 119 | 105 | 92.0 | 95.9 | 80.6 | 39.7 | 221 | 113 |
| 25 | FH535 + MK-2206 | - | 195 | 19.0 | 96.2 | 145 | 56.9 | 25.3 | 238 | 118 | 92.4 | 78.9 | 440 | 160 | 86.2 |
| 26 | temozolomide + tipifarnib | 84.0 | 285 | 132 | 77.6 | 273 | - | 237 | 88.2 | 50.2 | 34.8 | 88.6 | 215 | 103 | 542 |
| 27 | PF-04217903 + KU-55933 | 117 | 180 | 144 | 94.7 | 141 | 135 | 86.5 | 141 | 63.2 | 147 | 47.0 | 44.2 | 74.6 | 132 |
| 28 | temozolomide + PF-04217903 | 97.3 | 189 | 74.5 | 34.9 | 88.2 | - | 61.0 | 104 | 89.4 | 53.4 | 84.2 | 57.9 | 60.4 | 280 |
| 29 | temozolomide + FH535 | 145 | 98.0 | 50.3 | 93.6 | 83.3 | 65.8 | 49.2 | 154 | 234 | 73.4 | 83.4 | 736 | 134 | 764 |
| 30 | GW0742 + SU6656 | 195 | 116 | 175 | 103 | 59.8 | 14.9 | 433 | 149 | 142 | 179 | 150 | 141 | 167 | 120 |
| 31 | NVP-TAE684 + vincristine | - | 140 | 146 | 99.0 | 254 | 110 | 2030 | 104 | 25.1 | 85.9 | 241 | 116 | 1310 | 241 |
| 32 | AS-252424 + vincristine | - | 95.2 | 164 | 106 | 299 | 73.8 | 734 | 236 | 81.2 | 245 | 194 | 122 | 566 | 1720 |
| 33 | AS-252424 + GW2580 | 98.6 | 44.7 | 111 | 69.5 | 102 | 67.9 | 120 | 120 | 70.8 | 47.4 | 111 | 85.8 | 97.0 | 116 |
| 34 | AS-252424 + KU-55933 | 92.5 | 164 | 73.1 | 105 | 223 | 69.9 | 87.8 | 94.1 | 80.6 | 147 | 152 | 29.3 | 41.9 | 125 |
| 35 | GW0742 + PD173074 | 119 | 52.7 | 249 | 84.6 | 137 | 63.6 | 128 | 113 | 41.8 | 126 | 201 | 69.3 | 120 | 148 |

The last 2 entries again:

{"drugs": "AS-252424 + KU-55933", "WM1745": 92.5, "COLO 792": 164, "SK-MEL-2": 73.1, "C32": 105, "SK-MEL-5": 223, "A375": 69.9, "WM451Lu": 87.8, "WM3619": 94.1, "IPC-298": 80.6, "COLO 800": 147, "LOX IMVI": 152, "IST-MEL1": 29.3, "WM3526": 41.9, "A2058": 125}
{"drugs": "GW0742 + PD173074", "WM1745": 119, "COLO 792": 52.7, "SK-MEL-2": 249, "C32": 84.6, "SK-MEL-5": 137, "A375": 63.6, "WM451Lu": 128, "WM3619": 113, "IPC-298": 41.8, "COLO 800": 126, "LOX IMVI": 201, "IST-MEL1": 69.3, "WM3526": 120, "A2058": 148}